Test [1] addresses androgen receptor (human (endogenous in JN-DSRCT-1 and BER-DSRCT)) (UniProt P10275). In words: co-IP; nuclear extracts of BER-DSRCT cells overexpressing FLAG-tagged EWSR1 or WT1; immunoprecipitation with anti-AR or control antibody, protein G magnetic beads, Western blot. Background: A western blot detects proteins with antibodies after separation by electrophoresis.
Test [2] deals with wildtype EWSR1 (human (endogenous in JN-DSRCT-1 and BER-DSRCT)) (UniProt Q01844). In words: co-IP; reverse immunoprecipitation: nuclear extracts of BER-DSRCT and JN-DSRCT-1 cells, endogenous proteins; N-term EWSR1 antibody, protein G magnetic beads, Western blot.
The target in test [3] is androgen receptor (human (endogenous in JN-DSRCT-1 and BER-DSRCT)) (UniProt P10275). In words: co-IP; nuclear extracts (0.3 M NaCl high salt buffer) of JN-DSRCT-1 and BER-DSRCT cells, endogenous proteins; overnight at 4 °C with 2 μg anti-AR antibody or IgG control, protein G magnetic beads, Western blot.

Chains of the proteins cited; added tags and fusions are not shown.
UniProt P10275: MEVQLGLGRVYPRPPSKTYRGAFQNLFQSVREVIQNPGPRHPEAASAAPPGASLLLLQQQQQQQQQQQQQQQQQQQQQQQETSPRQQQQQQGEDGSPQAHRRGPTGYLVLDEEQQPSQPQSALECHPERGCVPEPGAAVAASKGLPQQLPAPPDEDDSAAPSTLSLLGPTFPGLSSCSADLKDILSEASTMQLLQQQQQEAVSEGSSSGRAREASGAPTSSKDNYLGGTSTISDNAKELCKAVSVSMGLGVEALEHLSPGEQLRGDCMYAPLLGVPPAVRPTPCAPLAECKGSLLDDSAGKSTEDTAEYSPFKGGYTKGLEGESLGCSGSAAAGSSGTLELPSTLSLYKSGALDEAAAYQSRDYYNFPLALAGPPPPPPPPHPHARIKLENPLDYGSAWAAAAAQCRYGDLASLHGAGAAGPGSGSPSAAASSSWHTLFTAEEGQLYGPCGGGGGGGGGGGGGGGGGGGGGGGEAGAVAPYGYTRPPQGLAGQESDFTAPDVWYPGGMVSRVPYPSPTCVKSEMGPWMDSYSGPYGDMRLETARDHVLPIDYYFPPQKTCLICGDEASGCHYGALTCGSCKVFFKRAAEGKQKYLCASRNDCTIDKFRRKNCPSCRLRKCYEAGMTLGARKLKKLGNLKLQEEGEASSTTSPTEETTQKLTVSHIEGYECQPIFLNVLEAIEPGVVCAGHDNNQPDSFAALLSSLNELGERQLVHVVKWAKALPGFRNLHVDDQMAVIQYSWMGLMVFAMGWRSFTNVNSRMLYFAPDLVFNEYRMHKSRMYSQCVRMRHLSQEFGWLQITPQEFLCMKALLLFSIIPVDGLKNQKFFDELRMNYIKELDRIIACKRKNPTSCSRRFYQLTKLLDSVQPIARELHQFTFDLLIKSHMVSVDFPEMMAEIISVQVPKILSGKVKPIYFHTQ
UniProt Q01844: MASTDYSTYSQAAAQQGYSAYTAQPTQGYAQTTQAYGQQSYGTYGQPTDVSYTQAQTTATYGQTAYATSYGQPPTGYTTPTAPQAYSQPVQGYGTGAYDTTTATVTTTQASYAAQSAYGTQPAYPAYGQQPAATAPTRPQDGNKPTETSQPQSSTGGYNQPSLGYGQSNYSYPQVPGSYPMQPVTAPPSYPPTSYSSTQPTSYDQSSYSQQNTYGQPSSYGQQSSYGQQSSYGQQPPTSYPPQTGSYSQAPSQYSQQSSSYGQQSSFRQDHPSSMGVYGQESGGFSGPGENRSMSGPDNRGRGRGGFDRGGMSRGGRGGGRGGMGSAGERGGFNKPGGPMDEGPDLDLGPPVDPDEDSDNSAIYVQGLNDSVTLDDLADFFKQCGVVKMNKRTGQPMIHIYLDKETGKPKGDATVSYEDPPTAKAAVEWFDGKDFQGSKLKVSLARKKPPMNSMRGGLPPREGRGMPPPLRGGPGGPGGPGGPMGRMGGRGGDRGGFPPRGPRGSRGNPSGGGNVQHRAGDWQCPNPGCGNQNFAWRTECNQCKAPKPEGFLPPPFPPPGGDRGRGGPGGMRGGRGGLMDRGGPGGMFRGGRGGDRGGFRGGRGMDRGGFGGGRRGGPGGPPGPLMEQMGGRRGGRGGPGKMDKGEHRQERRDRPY

Results are given in words; binding and its absence hold for the method and conditions named. Binding seen in cells or lysates may run through a third protein. Some results given as binding are weak or reduced against the parent protein; the word gives no strength.

Turning to “FLAG-tagged EWSR1 (from UniProt Q01844 1-656)”, in test [1], the binding entry is on record as “binds”.

“FLAG-tagged WT1 (from UniProt P19544 1-449)”: the binding entry in test [1] is “no binding”. Take “androgen receptor (from UniProt P10275 1-920)”: in test [2], the binding entry is reported as “binds”. On to “wildtype EWSR1 (from UniProt Q01844 1-656)”, for which, in test [3], the binding result is given as “binds”.

These data come from publication PMC10995187.
